Strings that start with PEPTIDE1 are HELM notation: dots part the residues, brackets hold end groups and non-standard residues.
assay: general procedure: solution-phase peptide synthesis; p-nitrophenyl (ONp) active esters with HOBt and DIEA; conditions: coupling step, trifluoroacetate

Substance	step yield [%]
protected heptapeptide of Z-Glu-Ala-Tyr-Gly-Trp-Met-Asp-NH2	72
Boc-Met-Gly-Trp-Met-Asp(βOBu^t)-NH2	75
Boc-Gly-Trp-Met-Asp(βOBzl)-NH2	86
Boc-Tyr-Gly-Trp-Met-Asp(βOBzl)-NH2	72
Z-Gly-Trp-Met-Asp(βOBu^t)-NH2	75
Z-Glu(OBut)-Ala-Tyr-Gly ester (step d)	85

same assay, conditions: late stage modification step, trifluoroacetate

Substance	step yield [%]
PEPTIDE1{[Boc].Y.G.W.M.D.[am]}$$$$V2.0	56
Z-Glu(γOBut)-Ala-Tyr-Gly-OH	75
Z--Tyr(HSO3)--Met--Gly--Trp--Met--Asp--NH2	55
--Z--Glu--Ala--Tyr--Gly--Trp--Met--Asp--NH2	97
--H--Met--gly--Trp--Met--Asp--NH2	85
